Reference: the supplement of paper PMC10735217
The other results are listed elsewhere or left out. Single values are uncertain here, since repeats match poorly.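 In a drug-repurposing library screen, luminescence reads luciferase driven by eight TEAD-binding elements, stably integrated into human kidney-derived cells. Compounds scoring over five robust Z scores above the plate mean are called hits.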

Test system: HEK293A TEAD-LUC reporter
Test: TEAD-luciferase reporter activity (YAP activation), robust Z score vs plate; higher = stronger YAP/TEAD activation
Conditions: 24 h

| Structure (SMILES) | TEAD-luciferase reporter activity (compound concentration: 200 nM) | TEAD-luciferase reporter activity (compound concentration: 2 uM) | TEAD-luciferase reporter activity (compound concentration: 10 uM) |
| --- | --- | --- | --- |
| CC#C[C@]1(O)CCC2C3CCC4=CC(=O)CCC4=C3[C@@H](c3ccc4c(c3)OCO4)C[C@@]21C (stereo partly drawn) | inactive: -1.46 | inactive: -0.0666 | inactive: 0.353 |
| O=C1C[C@@H]2CS(=O)c3ccccc3C2=NN1c1ccc(Cl)cc1 (stereo partly drawn) | inactive: -0.788 | inactive: -0.967 | inactive: 1.9 |
| [N-]=[N+]=N[C@]1(CO)O[C@@H](n2ccc(N)nc2=O)[C@H](O)[C@@H]1O | inactive: -0.314 | inactive: 1.43 | inactive: 1.1 |
| CC(C)(S)C(N)C(=O)O (racemic) | inactive: 0.704 | – | inactive: 0.155 |
| Clc1cccc(Cl)c1N(C1=NCCN1)C1CCCCO1 (stereo not drawn) | inactive: -1.92 | inactive: 1.74 | inactive: 1.03 |
| NCCNC(=O)c1ccc(Cl)cn1 [Lazabemide] | inactive: -0.5 | inactive: -0.03 | inactive: -1.03 |
| Cn1c(=O)c2c(nc(N3CCOCC3)n2C)n(C)c1=O | inactive: 0.421 | inactive: 0.491 | active: 12 |
| CC(C)(O)c1ccc(-c2nc(-c3ccc(F)cc3)oc2Sc2ccc(Cl)cn2)cn1 | inactive: -1.19 | inactive: -0.626 | inactive: 1.08 |
| CC(C)[N+](C)(CCOC(=O)C1c2ccccc2Oc2ccccc21)C(C)C [Propantheline bromide] | – | inactive: -1.23 | – |
| CC(C)[N+](C)(CCOC(=O)C1c2ccccc2Oc2ccccc21)C(C)C [Pro-Banthine50-34-0] | inactive: 4.75 | – | inactive: 1.08 |
| CCOC(=O)c1ccc(C#Cc2ccc3c(c2)C(C)(C)CCS3)nc1 [tazarotene] | inactive: -1 | inactive: -0.529 | inactive: 1.15 |
| C[C@@H]1CC[C@@]2(OC1)O[C@H]1C[C@H]3[C@@H]4CC[C@H]5C[C@H](O)CC[C@]5(C)[C@H]4CC[C@]3(C)[C@H]1[C@@H]2C [smilagenin] | inactive: 0.176 | inactive: -1.19 | inactive: -0.362 |
| CCCc1nc(CC)c(C(=O)O)n1Cc1ccc(-c2ccccc2-c2nn[nH]n2)cc1 | inactive: -1.64 | inactive: -1.18 | inactive: 1.48 |
| [Br][Ag] [Silver Bromide] | inactive: -0.481 | inactive: -0.468 | inactive: 1.51 |
| C[C@]12C=CC(=O)C=C1CC[C@@H]1[C@@H]2C(=O)C[C@@]2(C)[C@H]1CC[C@]2(O)C(=O)CO [Prednisone53-03-2] | inactive: -1.88 | – | inactive: -1.63 |
| C[C@]12C=CC(=O)C=C1CC[C@@H]1[C@@H]2C(=O)C[C@@]2(C)[C@H]1CC[C@]2(O)C(=O)CO [prednisolone, Takeda] | – | inactive: -0.267 | – |
| CN1CCN2c3ccccc3Cc3ccccc3C2C1 (stereo not drawn) [mianserin] | – | inactive: 1.29 | – |
| CN1CCN2c3ccccc3Cc3ccccc3C2C1 (stereo not drawn) | inactive: 2.08 | – | inactive: -0.405 |
| N[C@H](CCC(=O)N[C@H](Cc1c[nH]c2ccccc12)C(=O)O)C(=O)O [orilotimod] | inactive: -0.578 | inactive: 0.53 | inactive: 1.07 |
| Cc1ccc(F)cc1[C@@H]1C/C(=N\NC(=N)N)c2c(C)ccnc2C1 | inactive: -1.2 | inactive: -0.737 | inactive: -0.777 |

| Structure (SMILES) | TEAD-luciferase reporter activity (compound concentration: 200 nM) | TEAD-luciferase reporter activity (compound concentration: 2 uM) | TEAD-luciferase reporter activity (compound concentration: 10 uM) |
| --- | --- | --- | --- |
| CCCCC[C@H](O)/C=C/[C@H]1C(=O)C=C[C@@H]1C/C=C\CCCC(=O)O | inactive: -0.451 | inactive: 0.883 | inactive: 0.78 |
| NS(=O)(=O)c1nn2cc(-c3ccccc3)nc2s1 | inactive: 0.184 | inactive: -1.12 | inactive: 2.72 |
| CCOC(=O)c1ccc([C@H]2CC[C@H](NC[C@H](O)COc3ccc(O)c(NS(C)(=O)=O)c3)CC2)cc1 | inactive: -1.72 | inactive: -0.895 | inactive: 0.173 |
| NC(=O)c1ncn(C2OC(CO)C(O)C2O)n1 (stereo not drawn) | inactive: -2.3 | – | inactive: 1.06 |
| NC(=O)c1ncn(C2OC(CO)C(O)C2O)n1 (stereo not drawn) [ribavirin] | – | inactive: -0.791 | – |
| CC(C)=CCC/C(C)=C/CC/C(C)=C/C=C/C(C)=C/C(=O)O [peretinoin] | inactive: 1.67 | inactive: -1.77 | inactive: -0.446 |
| COc1ccc(N(Cc2cccnc2)c2cccc(C(=O)NC3CCCC3)c2)cc1OC1CCCC1 | inactive: -0.459 | inactive: -0.482 | inactive: 0.219 |
| CC1COC2=C1C(=O)C(=O)c1c2ccc2c1CCCC2(C)C (stereo not drawn) [Cryptotanshi] | inactive: -0.888 | inactive: -1.12 | active: 7.9 |
| CCCC(CCC)C(=O)Nc1ccn([C@@H]2O[C@H](CO)[C@@H](O)C2(F)F)c(=O)n1 | inactive: -2.45 | inactive: -0.765 | inactive: -0.975 |
| CCO[C@H](COc1ccc(C(F)(F)F)cc1)CSc1ccc(OCC(=O)O)c(C)c1 | inactive: 1.44 | inactive: -1.6 | inactive: -0.502 |
| C[C@]12CC[C@@H]3c4ccc(O)cc4CC[C@H]3[C@@H]1C[C@@H](O)[C@@H]2O [estriol, Jenapharm] | inactive: -0.92 | inactive: -2 | inactive: 2.69 |
| CCCCCCCCCCCCCCCCOc1nc2ccc(C)cc2c(=O)o1 [Cetilistat] | inactive: 0.252 | – | inactive: -0.233 |
| CSCC[C@H](NC(=O)C(CS)Cc1ccccc1C)C(=O)O (stereo partly drawn) | inactive: -1.49 | inactive: 0.738 | inactive: 0.52 |
| CN(C(=O)C(Cl)Cl)c1ccc(O)cc1 | inactive: 4.72 | inactive: -0.577 | inactive: -0.338 |
| COc1ccc(Cc2cccc(-c3c(OC(C)=O)c4ccc(Cl)cc4[nH]c3=O)c2)cc1 | inactive: -0.0756 | inactive: 2.36 | inactive: 3.26 |
| CC(C)CCC[C@@H](C)[C@H]1CC(=O)C2=C3CC[C@H]4C[C@@H](O)CC[C@]4(C)C3CC[C@@]21C (stereo partly drawn) [colestolone] | inactive: -0.672 | inactive: 0.382 | active: 8.4 |
| Nc1ncccc1-c1cc(Cc2ccc(COc3ccccn3)cc2)no1 | inactive: -0.948 | inactive: -0.377 | inactive: -0.782 |
| CO[C@@]1(NC(=O)C2SC(=C(C(N)=O)C(=O)O)S2)C(=O)N2C(C(=O)O)=C(CSc3nnnn3C)CS[C@@H]21 (stereo partly drawn) [cefotetan] | inactive: -0.652 | inactive: -0.0441 | inactive: 1.59 |
| O=C1c2ccccc2C(=O)C1c1ccc(F)cc1 | inactive: -1.45 | inactive: 1.26 | inactive: -0.771 |
| O=C(O)c1cccc(-c2noc(-c3ccccc3F)n2)c1 [ataluren] | inactive: 0.443 | inactive: -2.76 | inactive: -3.16 |

| Structure (SMILES) | TEAD-luciferase reporter activity (compound concentration: 200 nM) | TEAD-luciferase reporter activity (compound concentration: 2 uM) | TEAD-luciferase reporter activity (compound concentration: 10 uM) |
| --- | --- | --- | --- |
| C[C@@H](O)[C@H]1C(=O)N2C(C(=O)[O-])=C(S[C@@H]3CN[C@H](C(=O)Nc4cccc(C(=O)[O-])c4)C3)[C@H](C)[C@H]12 [Ertapenem disodium] | – | inactive: 1.44 | – |
| C[C@@H](O)[C@H]1C(=O)N2C(C(=O)[O-])=C(S[C@@H]3CN[C@H](C(=O)Nc4cccc(C(=O)[O-])c4)C3)[C@H](C)[C@H]12 [Ertapenem] | inactive: 0.665 | – | inactive: 0.268 |
| Cc1ccsc1-c1ccc(CCC(=O)O)cc1 | inactive: -0.239 | inactive: -0.561 | inactive: 3.72 |
| Clc1ccc2c(c1)C(N1CCNCC1)=Nc1ccccc1O2 | inactive: -0.251 | – | inactive: 1.63 |
| Clc1ccc2c(c1)C(N1CCNCC1)=Nc1ccccc1O2 [amoxapine] | – | inactive: -1.1 | – |
| CC(=O)NCCCNC(=O)Nc1c(C)cccc1C | active: 5.81 | inactive: -1.49 | inactive: -0.000612 |
| Cc1cccc(Oc2cnc(=O)[nH]c2)c1 [Tolimidone] | inactive: 0.101 | inactive: -1.71 | inactive: -0.074 |
| Cn1c(=O)c2c(ncn2CCCN2CCC(OC(c3ccccc3)c3ccccc3)CC2)n(C)c1=O | inactive: -0.942 | inactive: -1.93 | inactive: 3.34 |
| OC[C@@H]1O[C@@H](OC[C@@H]2O[C@@H](O[C@@H]3[C@H](O)[C@@H](CO)OC(O)[C@@H]3O)[C@@H](O)[C@H](O[C@@H]3O[C@@H](CO)[C@H](O)[C@@H](O)[C@@H]3O)[C@H]2O)[C@@H](O)[C@H](O)[C@H]1O (stereo partly drawn) | inactive: -1.22 | inactive: -0.291 | inactive: 0.313 |
| CC(C)(C(=O)c1cccnc1)c1cccnc1 [Metyrapone] | – | inactive: -0.46 | – |
| CC(C)(C(=O)c1cccnc1)c1cccnc1 | inactive: -2.59 | – | inactive: 0.26 |
| CC(C)CC(=O)Nc1cncc(-c2ccc3[nH]nc(-c4nc5c(-c6cccc(F)c6)cncc5[nH]4)c3c2)c1 | inactive: 3.03 | active: 22.7 | active: 9.85 |
| Cc1ccc2c(N3CCN(CCc4cccc(N5CCNC5=O)c4)CC3)cccc2n1 | inactive: -2.2 | inactive: -0.402 | inactive: -1.15 |
| O=C(COc1ccc(Cl)cc1)N1CCN(Cc2ccc3c(c2)OCO3)CC1 | inactive: -2.01 | inactive: -1.49 | inactive: -0.167 |
| Cc1cccc(C)c1NC(=O)C(C)N (stereo not drawn) | inactive: -0.431 | – | inactive: -0.507 |
| Cc1cccc(C)c1NC(=O)C(C)N (stereo not drawn) [tocainide] | – | inactive: 1.21 | – |
| CCC(C)NCC(=O)Nc1c(C)cccc1Cl (stereo not drawn) | inactive: 0.128 | inactive: 0.173 | inactive: -0.353 |
| COc1ccc2c(c1)c1oc(C(=O)Nc3nnn[nH]3)c(OC)c1n2-c1ccccc1 | inactive: -0.272 | inactive: 2.92 | inactive: -1.35 |

Random excerpt: two entries already listed, in no set order.

| Structure (SMILES) | TEAD-luciferase reporter activity (compound concentration: 200 nM) | TEAD-luciferase reporter activity (compound concentration: 2 uM) | TEAD-luciferase reporter activity (compound concentration: 10 uM) |
| --- | --- | --- | --- |
| COc1ccc2c(c1)c1oc(C(=O)Nc3nnn[nH]3)c(OC)c1n2-c1ccccc1 | inactive: -0.272 | inactive: 2.92 | inactive: -1.35 |
| CC(C)CC(=O)Nc1cncc(-c2ccc3[nH]nc(-c4nc5c(-c6cccc(F)c6)cncc5[nH]4)c3c2)c1 | inactive: 3.03 | active: 22.7 | active: 9.85 |
